Experimental data: PubChem BioAssay AID1259327 (Drosophila RNAi Screening Center, 2017)
The whole screen tested about 3,100 reagents; shown is a part drawn at random. 378 of all reagents (12%) count as active. 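Hits include both directions; z-score sign shows ATP rise or fall; raw luminescence values are not plate-normalised.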 A plus sign joins genes that one reagent is predicted to hit. Not given: the amount of reagent.

Test: 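Knock-downs altering cellular ATP with no metal added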
Cells: Drosophila S2R+ cells
Reagent: long dsRNA against Drosophila genes
Duration: 5 days (water added on day 4, read one day later)
Treatment: water added as vehicle, no metal, one day before read-out
Measured: 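Total ATP measured by luciferase light, scaled to plate mean, duplicates averaged, then z-scored across plates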
Scale: ATP z-score: higher = more total ATP than typical wells; ATP luminescence: higher = more total ATP
Call rule: 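Called active when the ATP z-score exceeds 1.5 or falls below -1.5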
Meaning of the calls: active = hit: ATP up or down; inactive = no clear ATP change

gene knocked down | dsRNA | ATP z-score, duplicate mean | ATP luminescence, replicate 1 (RLU) | ATP luminescence, replicate 2 (RLU) | outcome
PGAP3 | DRSC04989 | 0.174 | 7.17e5 | 7.83e5 | inactive
PGAP3 | DRSC39550 | -0.57 | 3.97e5 | 4.57e5 | inactive
GluClalpha | DRSC16680 | -0.921 | 2.51e5 | 6.79e5 | inactive
CG3149 | DRSC17732 | 0.495 | 8.68e5 | 6.49e5 | inactive
CG3149 | DRSC27511 | -0.0228 | 1.02e6 | 9.92e5 | inactive
Sec24CD | DRSC00300 | 1.3 | 5.34e5 | 6.09e5 | inactive
Syngr | DRSC06003 | 3.7 | 1.08e6 | 8.29e5 | active
Syngr | DRSC39806 | -1.11 | 3.84e5 | 4.19e5 | inactive
Elo68alpha | DRSC22725 | -0.842 | 5.01e5 | 5.16e5 | inactive
CG9702 | DRSC16540 | 2.15 | 8.95e5 | 7.48e5 | active
Ir7e | DRSC18011 | 0.231 | 7.59e5 | 7.43e5 | inactive
CG30047 | DRSC05340 | 0.484 | 7.06e5 | 8.90e5 | inactive
CG4332 | DRSC19890 | -0.603 | 6.19e5 | 6.67e5 | inactive
CG4332 | DRSC39702 | 0.346 | 4.94e5 | 4.83e5 | inactive
Gr59b | DRSC04179 | -0.308 | 6.82e5 | 7.04e5 | inactive
CG9444 | DRSC16493 | 1.33 | 4.04e5 | 7.92e5 | inactive
wls | DRSC10605 | -2.46 | 4.96e5 | 4.40e5 | active
wls | DRSC29313 | 0.402 | 8.79e5 | 8.63e5 | inactive
BBIP1 + CG8135 | DRSC16384 | -0.298 | 3.00e5 | 6.94e5 | inactive
BBIP1 + CG8135 | DRSC26052 | 0.359 | 9.02e5 | 8.88e5 | inactive
PIG-M + CG42380 + CG42379 + 1 more | DRSC03884 | -1.23 | 5.94e5 | 6.26e5 | inactive
PIG-M + CG42380 + CG42379 + 1 more | DRSC04580 | 0.705 | 7.82e5 | 8.31e5 | inactive
Corin | DRSC28927 | -0.53 | 8.45e5 | 6.81e5 | inactive
Corin | DRSC39613 | -0.669 | 4.11e5 | 4.29e5 | inactive

Laid out differently: results already given.
CG9444 [DRSC16493]: ATP z-score, duplicate mean = 1.33; ATP luminescence, replicate 1 (RLU) = 4.04e5; ATP luminescence, replicate 2 (RLU) = 7.92e5; outcome = inactive
wls [DRSC10605]: ATP z-score, duplicate mean = -2.46; ATP luminescence, replicate 1 (RLU) = 4.96e5; ATP luminescence, replicate 2 (RLU) = 4.40e5; outcome = active
wls [DRSC29313]: ATP z-score, duplicate mean = 0.402; ATP luminescence, replicate 1 (RLU) = 8.79e5; ATP luminescence, replicate 2 (RLU) = 8.63e5; outcome = inactive
BBIP1 + CG8135 [DRSC16384]: ATP z-score, duplicate mean = -0.298; ATP luminescence, replicate 1 (RLU) = 3.00e5; ATP luminescence, replicate 2 (RLU) = 6.94e5; outcome = inactive

The listing continues:
gene knocked down | dsRNA | ATP z-score, duplicate mean | ATP luminescence, replicate 1 (RLU) | ATP luminescence, replicate 2 (RLU) | outcome
Alg3 | DRSC04700 | 0.596 | 7.54e5 | 8.36e5 | inactive
PGRP-LE | DRSC20137 | -0.463 | 6.78e5 | 6.39e5 | inactive
CG6125 | DRSC15970 | -0.166 | 3.09e5 | 6.99e5 | inactive
CG5823 | DRSC15881 | -0.157 | 7.18e5 | 6.62e5 | inactive
CG5823 | DRSC39656 | 1.25 | 4.64e5 | 6.39e5 | inactive
CG5404 | DRSC28832 | -0.352 | 8.12e5 | 7.51e5 | inactive
CG5404 | DRSC39809 | 1.3 | 5.16e5 | 6.28e5 | inactive
Glut3 | DRSC16681 | 0.389 | 3.15e5 | 8.08e5 | inactive
Glut3 | DRSC26249 | -0.961 | 6.43e5 | 8.20e5 | inactive
Npc1b | DRSC20488 | 0.000196 | 6.86e5 | 8.03e5 | inactive
Npc1b | DRSC39575 | -0.918 | 3.87e5 | 4.19e5 | inactive
CG15553 | DRSC15091 | -0.697 | 6.54e5 | 6.38e5 | inactive
CG15553 | DRSC39697 | -0.901 | 4.34e5 | 3.73e5 | inactive
TrpA1 | DRSC10544 | -0.256 | 9.06e5 | 8.21e5 | inactive
CG32547 | DRSC19263 | -0.784 | 5.22e5 | 5.75e5 | inactive
CG32547 | DRSC19474 | 0.0774 | 6.45e5 | 8.36e5 | inactive
sax | DRSC07675 | -0.756 | 5.85e5 | 7.18e5 | inactive
sax | DRSC26844 | 1.56 | 9.28e5 | 9.15e5 | active
sax | DRSC37004 | 0.0635 | 4.46e5 | 7.27e5 | inactive
Alg10 | DRSC10892 | 0.614 | 9.76e5 | 9.76e5 | inactive
Alg10 | DRSC39451 | -0.692 | 4.41e5 | 3.75e5 | inactive
Or65b | DRSC08809 | -0.252 | 6.75e5 | 7.58e5 | inactive
Or65b | DRSC39719 | 1.85 | 5.83e5 | 5.99e5 | active
